In patent publication US6984656B2, “Core modified porphyrins” (priority 2001, dated 2006):
At least one compound was matched to its structure with a doubt left. Some of these results come from one statement about several compounds together.

Tests used:
[1] = in vivo; cited from earlier work
[2] = Two-photon excitation, absorption cross section; format: physicochemical; settings: Ti-sapphire laser at 900 nm, 100-fs pulses, 76 MHz
[3] = test system: R3230AC cells; experiment: Viability of R3230AC cells in the dark and after light; format: cell-based, rat; settings: 10^−6 M; 48-h exposure in the dark

| Structure (SMILES) | duration of skin photosensitization after administration [1] | two-photon absorption cross section [2] | reduction in cell number in the dark [3] |
| --- | --- | --- | --- |
| CCOC(=O)C1=Cc2c3nc(cc4nc(cc5[n-]c(cc6[n-]c2c(C)c6CC)c(C)c5CC)C(C)=C4CC)[C@@H](C)[C@]13CC.[Cl-].[Cl-].[Sn] (racemic) [SnET2, tin etiopurpurin] | up to 6 weeks | – | – |
| O=S(=O)([O-])c1ccc(-c2c3nc(c(-c4ccc(C(F)(F)F)cc4)c4ccc(s4)c(-c4ccc(C(F)(F)F)cc4)c4nc(c(-c5ccc(S(=O)(=O)[O-])cc5)c5ccc2s5)C=C4)C=C3)cc1.[Na+].[Na+] [Compound 13] | – | 10^−50-10^−51 | – |
| O=C([O-])COc1ccc(-c2c3nc(c(-c4ccc(F)cc4)c4ccc(s4)c(-c4ccc(F)cc4)c4nc(c(-c5ccc(OCC(=O)[O-])cc5)c5ccc2s5)C=C4)C=C3)cc1.[Na+].[Na+] [MA-99] | – | 10^−50-10^−51 | 20-30% |
